The other results are listed elsewhere or left out.
Compound: Cc1cc(ccc1-c1ccccc1)C(=O)N1CCCN(CC1)C(=O)CCl [compound 10]
Assay: probe-labelled cysteine peptide fold change vs DMSO (competition) (log2 fold change); higher = less target engagement (more negative = stronger competition)
Conditions: THP-1, incubation time: 4 h
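Note: competitive profiling in live THP-1 cells: cysteine peptides tagged with an iodoacetamide desthiobiotin (IA-DTB) probe, intensity after compound treatment relative to DMSO-treated cells.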

Chains of the proteins cited; added tags and fusions are not shown. Lines headed by an entry give the natural chain unless they say otherwise; changes in a name come on top.
UniProt P09132: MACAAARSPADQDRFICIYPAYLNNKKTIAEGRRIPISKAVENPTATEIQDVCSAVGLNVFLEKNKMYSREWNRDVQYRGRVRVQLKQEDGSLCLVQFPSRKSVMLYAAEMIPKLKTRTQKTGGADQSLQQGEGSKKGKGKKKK
UniProt O60493, whole entry, looked up: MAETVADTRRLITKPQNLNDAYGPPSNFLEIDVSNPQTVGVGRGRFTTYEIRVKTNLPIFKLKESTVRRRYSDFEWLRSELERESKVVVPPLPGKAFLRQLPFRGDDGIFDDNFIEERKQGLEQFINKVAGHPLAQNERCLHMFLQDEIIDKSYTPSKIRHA
UniProt P23497: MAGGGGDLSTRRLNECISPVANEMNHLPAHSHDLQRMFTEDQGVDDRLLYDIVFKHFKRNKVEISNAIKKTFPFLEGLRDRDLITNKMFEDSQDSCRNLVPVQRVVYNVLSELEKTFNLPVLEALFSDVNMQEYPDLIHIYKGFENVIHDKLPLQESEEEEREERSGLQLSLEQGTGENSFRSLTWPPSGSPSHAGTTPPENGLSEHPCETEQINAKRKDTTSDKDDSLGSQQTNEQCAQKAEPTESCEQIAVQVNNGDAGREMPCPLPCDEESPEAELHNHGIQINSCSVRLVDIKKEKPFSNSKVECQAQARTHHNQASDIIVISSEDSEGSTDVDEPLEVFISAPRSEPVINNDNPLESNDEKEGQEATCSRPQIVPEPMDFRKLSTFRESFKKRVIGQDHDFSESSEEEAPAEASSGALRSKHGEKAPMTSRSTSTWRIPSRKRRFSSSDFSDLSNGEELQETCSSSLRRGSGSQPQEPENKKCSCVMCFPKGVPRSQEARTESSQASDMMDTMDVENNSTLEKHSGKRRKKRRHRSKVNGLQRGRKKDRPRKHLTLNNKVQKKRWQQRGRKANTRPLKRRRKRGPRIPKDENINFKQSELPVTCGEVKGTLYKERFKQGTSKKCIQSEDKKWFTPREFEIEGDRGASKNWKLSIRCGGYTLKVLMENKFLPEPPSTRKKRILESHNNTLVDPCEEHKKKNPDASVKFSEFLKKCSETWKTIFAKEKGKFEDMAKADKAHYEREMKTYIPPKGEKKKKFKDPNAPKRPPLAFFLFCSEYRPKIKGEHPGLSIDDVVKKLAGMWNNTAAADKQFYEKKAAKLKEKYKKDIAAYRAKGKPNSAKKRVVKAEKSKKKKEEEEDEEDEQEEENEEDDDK
UniProt P78362, whole entry, looked up: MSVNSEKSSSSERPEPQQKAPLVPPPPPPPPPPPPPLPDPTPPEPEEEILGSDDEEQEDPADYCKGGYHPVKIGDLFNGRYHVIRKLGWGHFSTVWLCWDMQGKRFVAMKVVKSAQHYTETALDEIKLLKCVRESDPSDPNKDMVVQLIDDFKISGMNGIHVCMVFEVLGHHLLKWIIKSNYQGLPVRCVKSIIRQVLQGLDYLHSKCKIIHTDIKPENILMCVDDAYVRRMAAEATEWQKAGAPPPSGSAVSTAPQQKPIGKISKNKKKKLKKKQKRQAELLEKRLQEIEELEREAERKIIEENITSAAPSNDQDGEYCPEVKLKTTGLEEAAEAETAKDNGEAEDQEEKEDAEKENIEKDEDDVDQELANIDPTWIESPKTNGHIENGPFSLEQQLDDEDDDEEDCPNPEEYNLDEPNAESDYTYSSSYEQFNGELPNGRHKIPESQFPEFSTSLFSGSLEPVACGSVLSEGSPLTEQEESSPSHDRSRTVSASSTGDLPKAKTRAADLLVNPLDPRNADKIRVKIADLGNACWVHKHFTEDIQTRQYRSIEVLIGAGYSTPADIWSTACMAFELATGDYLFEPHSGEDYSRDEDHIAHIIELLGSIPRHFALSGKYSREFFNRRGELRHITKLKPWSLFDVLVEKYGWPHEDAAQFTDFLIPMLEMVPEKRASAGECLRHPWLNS
UniProt Q8NB90: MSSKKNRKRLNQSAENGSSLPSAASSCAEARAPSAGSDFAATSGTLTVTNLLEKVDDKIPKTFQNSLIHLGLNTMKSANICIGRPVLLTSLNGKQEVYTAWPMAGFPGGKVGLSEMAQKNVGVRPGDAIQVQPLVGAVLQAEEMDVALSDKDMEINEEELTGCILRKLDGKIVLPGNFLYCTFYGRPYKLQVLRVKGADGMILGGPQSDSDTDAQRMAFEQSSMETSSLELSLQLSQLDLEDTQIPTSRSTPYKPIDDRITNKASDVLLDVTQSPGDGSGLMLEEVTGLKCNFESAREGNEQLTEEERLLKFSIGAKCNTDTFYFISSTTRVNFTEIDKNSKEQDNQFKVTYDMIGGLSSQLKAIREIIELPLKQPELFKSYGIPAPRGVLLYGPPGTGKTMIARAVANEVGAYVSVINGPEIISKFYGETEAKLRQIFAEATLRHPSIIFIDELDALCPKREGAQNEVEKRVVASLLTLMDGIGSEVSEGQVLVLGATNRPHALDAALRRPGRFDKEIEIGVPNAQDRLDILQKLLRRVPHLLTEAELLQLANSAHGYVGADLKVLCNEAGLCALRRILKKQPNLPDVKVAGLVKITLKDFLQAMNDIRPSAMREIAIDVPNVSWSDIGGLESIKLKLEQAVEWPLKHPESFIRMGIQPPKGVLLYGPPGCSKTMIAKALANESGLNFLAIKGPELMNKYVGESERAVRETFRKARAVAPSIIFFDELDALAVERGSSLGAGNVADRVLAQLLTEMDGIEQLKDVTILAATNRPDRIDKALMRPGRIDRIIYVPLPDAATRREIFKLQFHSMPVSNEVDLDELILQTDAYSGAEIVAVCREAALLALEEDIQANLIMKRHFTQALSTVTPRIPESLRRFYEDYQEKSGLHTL
UniProt O15270: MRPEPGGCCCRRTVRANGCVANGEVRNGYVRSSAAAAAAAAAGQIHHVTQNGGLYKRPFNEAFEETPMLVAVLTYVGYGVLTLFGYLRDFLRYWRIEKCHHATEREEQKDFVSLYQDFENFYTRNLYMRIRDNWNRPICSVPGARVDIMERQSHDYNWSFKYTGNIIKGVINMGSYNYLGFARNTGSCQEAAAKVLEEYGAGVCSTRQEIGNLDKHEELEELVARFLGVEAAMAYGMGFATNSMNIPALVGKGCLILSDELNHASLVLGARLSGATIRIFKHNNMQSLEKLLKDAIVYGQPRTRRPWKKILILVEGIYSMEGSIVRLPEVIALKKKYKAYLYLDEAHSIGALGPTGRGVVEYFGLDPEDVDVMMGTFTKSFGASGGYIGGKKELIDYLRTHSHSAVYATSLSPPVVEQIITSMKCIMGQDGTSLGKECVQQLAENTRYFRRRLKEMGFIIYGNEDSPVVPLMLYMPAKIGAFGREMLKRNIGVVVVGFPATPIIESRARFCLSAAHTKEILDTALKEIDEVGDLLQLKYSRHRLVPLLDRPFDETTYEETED
UniProt Q01082, whole entry, looked up: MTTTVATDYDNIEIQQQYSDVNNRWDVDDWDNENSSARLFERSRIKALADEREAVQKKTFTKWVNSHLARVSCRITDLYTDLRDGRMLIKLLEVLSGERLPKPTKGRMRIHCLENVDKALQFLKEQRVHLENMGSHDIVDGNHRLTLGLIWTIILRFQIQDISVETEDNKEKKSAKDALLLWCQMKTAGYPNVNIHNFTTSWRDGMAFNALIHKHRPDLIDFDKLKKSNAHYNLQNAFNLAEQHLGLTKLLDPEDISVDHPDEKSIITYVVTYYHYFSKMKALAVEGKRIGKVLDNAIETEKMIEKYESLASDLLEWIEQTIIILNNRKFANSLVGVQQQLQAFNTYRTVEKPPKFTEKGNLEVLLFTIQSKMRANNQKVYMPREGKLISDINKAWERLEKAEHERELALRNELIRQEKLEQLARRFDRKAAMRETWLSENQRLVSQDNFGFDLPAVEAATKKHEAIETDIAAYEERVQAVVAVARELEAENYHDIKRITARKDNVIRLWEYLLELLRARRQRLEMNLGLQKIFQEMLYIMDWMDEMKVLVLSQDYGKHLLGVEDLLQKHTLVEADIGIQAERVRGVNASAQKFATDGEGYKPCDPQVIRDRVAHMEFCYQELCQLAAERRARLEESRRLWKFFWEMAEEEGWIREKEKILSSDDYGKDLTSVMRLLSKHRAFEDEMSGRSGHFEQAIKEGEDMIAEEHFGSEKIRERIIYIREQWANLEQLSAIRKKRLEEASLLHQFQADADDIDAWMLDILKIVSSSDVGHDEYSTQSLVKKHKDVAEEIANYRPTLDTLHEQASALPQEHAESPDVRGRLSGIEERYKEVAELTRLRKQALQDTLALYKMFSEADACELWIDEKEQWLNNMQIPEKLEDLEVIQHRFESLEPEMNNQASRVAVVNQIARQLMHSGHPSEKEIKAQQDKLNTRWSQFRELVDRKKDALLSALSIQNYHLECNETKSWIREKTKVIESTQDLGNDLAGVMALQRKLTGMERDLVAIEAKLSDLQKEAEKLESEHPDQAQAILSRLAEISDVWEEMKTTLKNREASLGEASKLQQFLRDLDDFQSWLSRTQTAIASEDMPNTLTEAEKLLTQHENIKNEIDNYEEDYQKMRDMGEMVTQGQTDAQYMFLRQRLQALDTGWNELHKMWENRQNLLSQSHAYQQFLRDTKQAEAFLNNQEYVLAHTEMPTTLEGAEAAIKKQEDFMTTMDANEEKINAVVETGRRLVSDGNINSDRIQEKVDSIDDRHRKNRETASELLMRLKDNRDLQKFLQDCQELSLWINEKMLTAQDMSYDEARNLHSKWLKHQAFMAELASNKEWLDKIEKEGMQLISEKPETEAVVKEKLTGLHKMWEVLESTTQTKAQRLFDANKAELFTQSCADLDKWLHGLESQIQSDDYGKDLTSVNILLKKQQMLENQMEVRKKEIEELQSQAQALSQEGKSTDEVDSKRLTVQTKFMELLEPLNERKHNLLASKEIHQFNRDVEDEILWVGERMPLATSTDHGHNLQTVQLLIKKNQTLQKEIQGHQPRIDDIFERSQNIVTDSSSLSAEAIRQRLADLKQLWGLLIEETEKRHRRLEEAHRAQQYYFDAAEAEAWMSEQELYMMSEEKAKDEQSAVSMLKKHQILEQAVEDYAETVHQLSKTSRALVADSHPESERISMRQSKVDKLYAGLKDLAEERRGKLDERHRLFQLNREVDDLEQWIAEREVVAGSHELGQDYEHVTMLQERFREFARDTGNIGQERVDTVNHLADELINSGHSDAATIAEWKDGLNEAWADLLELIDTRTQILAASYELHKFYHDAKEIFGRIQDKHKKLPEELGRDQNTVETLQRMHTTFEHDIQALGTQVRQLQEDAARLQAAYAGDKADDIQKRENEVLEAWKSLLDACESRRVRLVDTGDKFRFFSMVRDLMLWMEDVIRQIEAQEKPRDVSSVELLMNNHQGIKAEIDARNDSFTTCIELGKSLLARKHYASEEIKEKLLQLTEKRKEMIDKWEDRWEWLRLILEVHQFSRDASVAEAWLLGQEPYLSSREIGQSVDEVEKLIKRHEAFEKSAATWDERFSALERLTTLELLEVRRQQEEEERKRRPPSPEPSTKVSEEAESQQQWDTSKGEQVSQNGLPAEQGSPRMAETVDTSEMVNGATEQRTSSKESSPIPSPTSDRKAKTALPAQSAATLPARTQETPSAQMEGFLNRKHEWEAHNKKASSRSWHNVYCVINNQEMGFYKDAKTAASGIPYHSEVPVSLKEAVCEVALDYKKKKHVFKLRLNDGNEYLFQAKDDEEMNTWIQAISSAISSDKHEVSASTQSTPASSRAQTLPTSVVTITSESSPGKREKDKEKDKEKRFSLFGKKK
UniProt P00441, whole entry, looked up: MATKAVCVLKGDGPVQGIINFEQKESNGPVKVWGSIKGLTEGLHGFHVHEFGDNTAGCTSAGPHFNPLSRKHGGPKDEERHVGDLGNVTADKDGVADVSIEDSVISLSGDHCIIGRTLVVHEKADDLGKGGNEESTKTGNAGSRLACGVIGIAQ
UniProt Q9BUA3: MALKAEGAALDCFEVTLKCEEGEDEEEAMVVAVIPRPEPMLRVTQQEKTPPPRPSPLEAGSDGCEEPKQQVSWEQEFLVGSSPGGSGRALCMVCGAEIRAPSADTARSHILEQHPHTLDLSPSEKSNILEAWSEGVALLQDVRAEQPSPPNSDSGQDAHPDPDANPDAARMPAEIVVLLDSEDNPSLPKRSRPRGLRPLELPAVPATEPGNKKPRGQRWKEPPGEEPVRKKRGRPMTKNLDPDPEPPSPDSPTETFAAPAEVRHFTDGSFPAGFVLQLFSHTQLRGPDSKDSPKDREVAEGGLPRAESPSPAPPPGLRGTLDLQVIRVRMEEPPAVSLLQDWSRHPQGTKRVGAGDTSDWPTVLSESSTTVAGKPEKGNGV
UniProt Q00796: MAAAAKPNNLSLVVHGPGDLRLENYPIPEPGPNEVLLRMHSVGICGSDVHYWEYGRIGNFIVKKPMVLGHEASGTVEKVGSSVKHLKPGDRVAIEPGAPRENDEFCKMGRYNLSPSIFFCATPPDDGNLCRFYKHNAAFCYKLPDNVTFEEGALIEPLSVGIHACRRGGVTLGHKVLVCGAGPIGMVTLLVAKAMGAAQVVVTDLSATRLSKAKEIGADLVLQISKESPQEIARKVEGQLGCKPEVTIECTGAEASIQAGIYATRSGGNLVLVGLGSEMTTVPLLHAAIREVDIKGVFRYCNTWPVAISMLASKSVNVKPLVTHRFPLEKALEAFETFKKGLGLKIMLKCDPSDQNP

| Target | probe-labelled cysteine peptide fold change (10 µM) | probe-labelled cysteine peptide fold change (50 µM) |
| --- | --- | --- |
| SNX18_Q96RF0_30_EHEVLSLCSEQDIEGWLEGVNSR (UniProt Q96RF0) | -0.133 | -0.0822 |
| SPATS2L_Q9NUQ6_351_AQIMLCGEITHPK (UniProt Q9NUQ6) | -0.0897 | 0.074 |
| SREK1IP1_Q8N9Q2_18_CGYPGHLTFECR (UniProt Q8N9Q2) | 0.0937 | 0.23 |
| SPAG1_Q07617_680_QDCDQALQLADGNVK (UniProt Q07617) | -0.171 | 0.0218 |
| SRP19_P09132_3_ACAAAR (UniProt P09132) | -0.0368 | 0.0842 |
| SRPRB_Q9Y5M8_246_EFEFSQLPLKVEFLECSAK (UniProt Q9Y5M8) | -0.354 | -1.1 |
| SRP72_O76094_323_ALLAMYTNQAEQCR (UniProt O76094) | -0.0676 | -0.0424 |
| SRI_P30626_162_ITFDDYIACCVK (UniProt P30626) | 0.0614 | -0.143 |
| SNX3_O60493_140_CLHMFLQDEIIDK (UniProt O60493) | -0.0431 | -0.235 |
| SP100_P23497_373_EGQEATCSRPQIVPEPMDFRK (UniProt P23497) | -0.194 | -0.491 |
| SPG21_Q9NZD8_204_LTLNCQNSYVEPHK (UniProt Q9NZD8) | -0.303 | -0.246 |
| SP3_Q02447_686_KFVCPECSK (UniProt Q02447) | 0.045 | 0.137 |
| SRPK2_P78362_223_IIHTDIKPENILMCVDDAYVR (UniProt P78362) | 0.036 | -0.0048 |
| SPATA5_Q8NB90_163_DMEINEEELTGCILR (UniProt Q8NB90) | -0.0251 | -0.279 |
| SPTLC2_O15270_188_NTGSCQEAAAK (UniProt O15270) | 0.142 | 0.0919 |
| SRPK2_P78362_320_IIEENITSAAPSNDQDGEYCPEVK (UniProt P78362) | -0.0943 | 0.0113 |
| SNX9_Q9Y5X1_492_DLHFLMECNHEYK (UniProt Q9Y5X1) | -0.0414 | -0.16 |
| SPTBN1_Q01082_1389_AELFTQSCADLDK (UniProt Q01082) | 0.0919 | -0.194 |
| SPCS2_Q15005_17+26_SGGSGGCSGAGGASNCGTGSGR (UniProt Q15005) | -0.494 | -1.1 |
| SPATA5L1_Q9BVQ7_78_RDGADGFVQLDPLCASPGAAVGASR (UniProt Q9BVQ7) | -0.102 | 0.473 |
| SOD1_P00441_7_AVCVLK (UniProt P00441) | 0.272 | -0.0133 |
| SPINDOC_Q9BUA3_12_AEGAALDCFEVTLK (UniProt Q9BUA3) | -0.158 | -0.0572 |

Single records (already shown).
SPINDOC_Q9BUA3_12_AEGAALDCFEVTLK (UniProt Q9BUA3) as listed: probe-labelled cysteine peptide fold change (10 µM) = -0.158; probe-labelled cysteine peptide fold change (50 µM) = -0.0572
SNX3_O60493_140_CLHMFLQDEIIDK (UniProt O60493) as listed: probe-labelled cysteine peptide fold change (10 µM) = -0.0431; probe-labelled cysteine peptide fold change (50 µM) = -0.235

(listing goes on)

| Target | probe-labelled cysteine peptide fold change (10 µM) | probe-labelled cysteine peptide fold change (50 µM) |
| --- | --- | --- |
| SNX16_P57768_230_AFCETLEETNYR (UniProt P57768) | -0.196 | -0.00342 |
| SPAG5_Q96R06_420_HSTSETEQLLCGRPPDLTALSR (UniProt Q96R06) | -0.145 | -0.399 |
| SPATA20_Q8TB22_671_CVCLLTAFSER (UniProt Q8TB22) | -0.0396 | -0.181 |
| SORD_Q00796_140_HNAAFCYK (UniProt Q00796) | 0.133 | 0.0192 |
| SRM_P19623_123_HPSVESVVQCEIDEDVIQVSK (UniProt P19623) | 0.179 | 0.148 |
| SNX14_Q9Y5W7_857_DAIFCENTEPR (UniProt Q9Y5W7) | -0.187 | -0.196 |
| SNRPD3_P62318_41_LIEAEDNMNCQMSNITVTYRDGR (UniProt P62318) | 0.0222 | -0.54 |
| SRP19_P09132_94_QEDGSLCLVQFPSRK (UniProt P09132) | 0.413 | -0.0819 |
| SORD_Q00796_301_YCNTWPVAISMLASK (UniProt Q00796) | 0.251 | 0.115 |
| SOWAHD_A6NJG2_109_LCLEPR (UniProt A6NJG2) | -0.0959 | 0.267 |
| SPTBN1_Q01082_964_DALLSALSIQNYHLECNETK (UniProt Q01082) | 0.226 | 0.0494 |
| SPATA5_Q8NB90_291_CNFESAR (UniProt Q8NB90) | -0.244 | -0.402 |
| SPTLC2_O15270_438_ECVQQLAENTR (UniProt O15270) | -0.0228 | 0.123 |
| SPRED2_Q7Z698_73_LVVLECYVR (UniProt Q7Z698) | -0.0368 | 0.0489 |
| SPTLC2_O15270_139_IRDNWNRPICSVPGAR (UniProt O15270) | -0.0633 | 0.0428 |
| SRPK1_Q96SB4_647_ATAAECLR (UniProt Q96SB4) | -0.0571 | -0.00503 |
| SP140L_Q9H930_191_KESDQACGK (UniProt Q9H930) | -0.0796 | -0.243 |
| SPTBN1_Q01082_1900_SLLDACESR (UniProt Q01082) | 0.136 | 0.207 |
| SRPK2_P78362_680_ASAGECLR (UniProt P78362) | -0.181 | -0.0361 |
| SP1_P08047_633_KQHICHIQGCGK (UniProt P08047) | -0.0751 | -0.699 |
| SP100_P23497_248_AEPTESCEQIAVQVNNGDAGR (UniProt P23497) | -0.0959 | -0.26 |

Source: the supplement of paper PMC12067093, “Discovery and optimisation of a covalent ligand for TRIM25 and its application to targeted protein ubiquitination” (Chemical Science, 2025)
